Experimental data: PubChem BioAssay AID1224828 (NIAID, 2016)
Assay: 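Find genes required for NF-kappaB p65 moving into the nucleus after LPS in mouse macrophages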 (primary screen). Cells: mouse RAW264.7 G9 macrophage reporter cells (GFP-p65, Tnf promoter-mCherry). Reagent: siRNA pool against mouse genes, 100 nM. Time to read-out: 2 days siRNA transfection, then 40 min LPS before fixation. Treatment: LPS (Salmonella minnesota R595) at 10 ng/ml. Read-out: 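Microscopy ratio of nuclear to perinuclear-ring GFP-p65 signal, scaled to the plate median; gene score is the average of two replicate robust z-scores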. Scale: p65 translocation robust z-score: higher = more nuclear NF-kappaB p65 after LPS than the plate median; nuclear/cytoplasmic p65 ratio: higher = more nuclear NF-kappaB p65. Call rule: 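Called active when z exceeds 3.3 or falls under -1.56 (median of Tlr4 controls), giving activity score of at least 50; no calls for control wells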. Meaning of the calls: active = hit (p65 shift raised or lowered); inactive = no clear change.
In all, the deposit lists about 17,000 reagents; below is a random part of them. 762 of all reagents (4.5%) were called active. 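Active calls include both raised and lowered p65 entry, mostly lowered; wells with fewer than 50 cells lack a z-score.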 Raw values are not corrected between plates.

| p65 translocation robust z-score | nuclear/cytoplasmic p65 ratio, rep 1 | nuclear/cytoplasmic p65 ratio, rep 2 | low cell count flag | Outcome | gene |
| --- | --- | --- | --- | --- | --- |
| -0.17 | 1.72 | 1.36 | enough cells to score | inactive | Nme8 (GeneID 73412) |
| 1.18 | 1.6 | 1.71 | enough cells to score | inactive | Rbfa (GeneID 68731) |
| – | 1.27 | 1.08 | fewer than 50 cells per well; well left out of scoring | inactive | Psmb2 (GeneID 26445) |
| – | 1.71 | 2.41 | fewer than 50 cells per well; well left out of scoring | inactive | Dctpp1 (GeneID 66422) |
| -1.09 | 1.37 | 1.32 | enough cells to score | inactive | Hvcn1 (GeneID 74096) |
| – | 1.39 | 1.25 | fewer than 50 cells per well; well left out of scoring | inactive | Dusp3 (GeneID 72349) |
| -2.69 | 1.27 | 1.2 | enough cells to score | active | Adgrg1 (GeneID 14766) |
| 0.2 | 1.85 | 1.31 | enough cells to score | inactive | Tyk2 (GeneID 54721) |
| 0.01 | 1.57 | 1.55 | enough cells to score | inactive | Vmn2r57 (GeneID 269902) |
| -0.96 | 1.41 | 1.15 | enough cells to score | inactive | Gla (GeneID 11605) |
| -1.81 | 1.58 | 1.24 | enough cells to score | active | Myl1 (GeneID 17901) |
| -0.15 | 1.55 | 1.63 | enough cells to score | inactive | Bin1 (GeneID 30948) |
| 0.6 | 1.42 | 1.32 | enough cells to score | inactive | Polq (GeneID 77782) |
| 0.26 | 1.54 | 1.65 | enough cells to score | inactive | Ppp4r3b (GeneID 104570) |
| -1.07 | 1.18 | 1.21 | enough cells to score | inactive | Ndrg4 (GeneID 234593) |
| 0.55 | 1.87 | 1.55 | enough cells to score | inactive | Nutf2 (GeneID 68051) |
| 0.18 | 1.66 | 1.63 | enough cells to score | inactive | Arid3a (GeneID 13496) |
| 0.37 | 1.69 | 1.8 | enough cells to score | inactive | Noct (GeneID 12457) |
| -1.38 | 1.39 | 1.59 | enough cells to score | inactive | Iqcc (GeneID 230767) |
| -1.36 | 1.22 | 1.08 | enough cells to score | inactive | Rnf44 (GeneID 105239) |
| -1.9 | 1.21 | 0.991 | enough cells to score | active | Ikzf1 (GeneID 22778) |
| 2.08 | 1.49 | 1.46 | enough cells to score | inactive | Slco1a5 (GeneID 108096) |
| -0.28 | 1.55 | 1.65 | enough cells to score | inactive | AI315068 |
| -0.72 | 1.29 | 1.36 | enough cells to score | inactive | Runx1t1 (GeneID 12395) |
| -0.11 | 1.5 | 1.5 | enough cells to score | inactive | Rab10 (GeneID 19325) |
| – | 1.33 | 1.07 | fewer than 50 cells per well; well left out of scoring | inactive | Rpl4 (GeneID 67891) |
| – | 1.01 | 0.724 | fewer than 50 cells per well; well left out of scoring | inactive | Tmem132c (GeneID 208213) |
| – | 1.21 | 1.16 | fewer than 50 cells per well; well left out of scoring | inactive | Spata6l (GeneID 381218) |
| – | 1.33 | 1.18 | fewer than 50 cells per well; well left out of scoring | inactive | Mpv17l2 (GeneID 234384) |
| -0.38 | 1.23 | 1.3 | enough cells to score | inactive | Man2b1 (GeneID 17159) |
| -0.99 | 1.42 | 1.33 | enough cells to score | inactive | Rhobtb3 (GeneID 73296) |
| -0.08 | 1.66 | 1.55 | enough cells to score | inactive | Birc6 (GeneID 12211) |
| 0.79 | 1.67 | 1.93 | enough cells to score | inactive | Cyp4b1 (GeneID 13120) |
| -1.96 | 1.14 | 1.13 | enough cells to score | active | Klf16 (GeneID 118445) |
| 0.16 | 1.3 | 1.32 | enough cells to score | inactive | Msl1 (GeneID 74026) |
| 1.73 | 1.84 | 1.62 | enough cells to score | inactive | Klhl7 (GeneID 52323) |
| 2.27 | 2.01 | 1.7 | enough cells to score | inactive | Lmtk2 (GeneID 231876) |
| 0.7 | 1.54 | 1.5 | enough cells to score | inactive | Kcne5 (GeneID 66240) |
| -0.53 | 1.5 | 1.63 | enough cells to score | inactive | Abhd1 (GeneID 57742) |
| 1.09 | 1.53 | 1.66 | enough cells to score | inactive | Tgm6 (GeneID 241636) |

Look-ups from above.
Under “low cell count flag”, Adgrg1 (GeneID 14766) shows enough cells to score
Birc6 (GeneID 12211), nuclear/cytoplasmic p65 ratio, rep 1: 1.66
For “nuclear/cytoplasmic p65 ratio, rep 2”, Klf16 (GeneID 118445) has 1.13
